Measurements published in patent publication US20050095240A1, “NaCT as a target for lifespan expansion and weight reduction” (Medical College of Georgia Research, priority 2002, published 2005).
At least one structure is not confirmed: it was looked up by name or label, or the drawing left a doubt. Some of these results come from one statement about several compounds together.

Amino acid sequences for entries named in this document (tags omitted). A change or cut given only in a name is not applied to a line headed by its entry. Residues count along the entry.
UniProt Q9VVT2, 19-590: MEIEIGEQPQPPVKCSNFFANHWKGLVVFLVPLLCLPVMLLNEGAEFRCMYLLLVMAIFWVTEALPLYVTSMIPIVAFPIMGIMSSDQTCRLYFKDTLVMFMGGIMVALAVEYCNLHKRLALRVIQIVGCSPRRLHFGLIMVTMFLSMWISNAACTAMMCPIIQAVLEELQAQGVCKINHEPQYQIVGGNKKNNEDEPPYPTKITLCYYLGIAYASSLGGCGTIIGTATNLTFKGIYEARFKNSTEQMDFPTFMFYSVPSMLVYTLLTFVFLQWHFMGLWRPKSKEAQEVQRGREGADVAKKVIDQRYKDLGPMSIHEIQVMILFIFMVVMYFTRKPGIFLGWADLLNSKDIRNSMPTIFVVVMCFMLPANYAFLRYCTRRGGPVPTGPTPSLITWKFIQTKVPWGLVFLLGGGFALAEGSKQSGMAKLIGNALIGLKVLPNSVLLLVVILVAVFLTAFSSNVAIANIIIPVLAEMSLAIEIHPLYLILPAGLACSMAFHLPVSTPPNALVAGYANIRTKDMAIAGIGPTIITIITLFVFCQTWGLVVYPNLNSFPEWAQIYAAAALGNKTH
UniProt Q86YT5: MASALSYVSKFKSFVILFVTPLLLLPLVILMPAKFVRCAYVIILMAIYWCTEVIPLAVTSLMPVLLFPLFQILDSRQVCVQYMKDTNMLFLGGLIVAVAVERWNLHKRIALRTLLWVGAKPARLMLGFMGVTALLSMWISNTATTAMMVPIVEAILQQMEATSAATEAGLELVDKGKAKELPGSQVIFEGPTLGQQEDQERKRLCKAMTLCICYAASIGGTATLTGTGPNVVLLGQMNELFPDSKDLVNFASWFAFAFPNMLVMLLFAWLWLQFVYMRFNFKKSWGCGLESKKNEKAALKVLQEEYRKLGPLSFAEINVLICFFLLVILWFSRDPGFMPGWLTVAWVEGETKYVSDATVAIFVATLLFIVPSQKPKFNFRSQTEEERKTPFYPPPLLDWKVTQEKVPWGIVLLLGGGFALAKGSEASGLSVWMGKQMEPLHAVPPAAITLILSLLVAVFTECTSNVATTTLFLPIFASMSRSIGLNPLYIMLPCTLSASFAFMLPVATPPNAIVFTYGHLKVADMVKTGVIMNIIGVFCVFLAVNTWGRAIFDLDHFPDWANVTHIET
UniProt A0A2R8QQN0, 2-582 K78Q: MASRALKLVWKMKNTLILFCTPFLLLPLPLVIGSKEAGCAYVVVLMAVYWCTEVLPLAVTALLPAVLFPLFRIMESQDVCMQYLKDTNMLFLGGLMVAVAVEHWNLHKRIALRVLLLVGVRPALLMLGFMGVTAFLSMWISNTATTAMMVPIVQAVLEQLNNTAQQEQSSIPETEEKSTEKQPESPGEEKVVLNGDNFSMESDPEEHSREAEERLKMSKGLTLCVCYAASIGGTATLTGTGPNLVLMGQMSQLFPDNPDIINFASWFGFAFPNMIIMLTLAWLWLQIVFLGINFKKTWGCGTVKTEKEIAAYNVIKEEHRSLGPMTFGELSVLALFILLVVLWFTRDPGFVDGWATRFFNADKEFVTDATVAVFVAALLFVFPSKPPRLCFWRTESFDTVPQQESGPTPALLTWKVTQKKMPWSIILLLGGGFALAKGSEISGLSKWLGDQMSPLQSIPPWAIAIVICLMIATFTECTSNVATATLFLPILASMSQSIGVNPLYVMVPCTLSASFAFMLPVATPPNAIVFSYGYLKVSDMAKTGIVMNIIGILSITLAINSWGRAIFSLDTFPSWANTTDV

Assays:
mouse NaCT = biological target: T1, mouse NaCT (Mus musculus, UniProt Q67BT3); experiment: Transport via mouse NaCT expressed in HRPE cells; type: cell-based
T1 sequence (Q67BT3 1-572): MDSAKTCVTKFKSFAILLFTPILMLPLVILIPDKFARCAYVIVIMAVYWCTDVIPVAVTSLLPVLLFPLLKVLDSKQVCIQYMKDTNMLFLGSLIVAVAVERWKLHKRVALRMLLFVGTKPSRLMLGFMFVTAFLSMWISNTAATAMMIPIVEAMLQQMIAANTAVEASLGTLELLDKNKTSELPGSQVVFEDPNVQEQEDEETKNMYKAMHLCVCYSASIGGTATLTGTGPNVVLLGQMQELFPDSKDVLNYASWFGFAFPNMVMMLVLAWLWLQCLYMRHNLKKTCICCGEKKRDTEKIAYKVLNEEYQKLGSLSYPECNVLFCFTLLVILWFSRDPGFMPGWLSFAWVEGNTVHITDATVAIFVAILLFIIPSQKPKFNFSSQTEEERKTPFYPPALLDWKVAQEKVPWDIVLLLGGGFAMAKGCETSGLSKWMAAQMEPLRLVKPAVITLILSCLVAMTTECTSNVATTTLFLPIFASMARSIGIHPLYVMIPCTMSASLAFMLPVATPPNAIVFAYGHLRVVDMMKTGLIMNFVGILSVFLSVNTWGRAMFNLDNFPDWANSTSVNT

drIndy = drIndy (Drosophila melanogaster, UniProt Q9VVT2); settings: presence of Na+; succinate 40 nM, citrate 35 μM, pyruvate 135 μM
human NaCT = human NaCT (Homo sapiens, UniProt Q86YT5); experiment: Uptake via human NaCT expressed in HRPE cells; type: cell-based
rat NaCT [1] = biological target: T2, rat NaCT (Rattus norvegicus, UniProt Q8CJ44); experiment: Uptake via rat NaCT expressed in HRPE cells; type: cell-based
T2 sequence (Q8CJ44 1-572): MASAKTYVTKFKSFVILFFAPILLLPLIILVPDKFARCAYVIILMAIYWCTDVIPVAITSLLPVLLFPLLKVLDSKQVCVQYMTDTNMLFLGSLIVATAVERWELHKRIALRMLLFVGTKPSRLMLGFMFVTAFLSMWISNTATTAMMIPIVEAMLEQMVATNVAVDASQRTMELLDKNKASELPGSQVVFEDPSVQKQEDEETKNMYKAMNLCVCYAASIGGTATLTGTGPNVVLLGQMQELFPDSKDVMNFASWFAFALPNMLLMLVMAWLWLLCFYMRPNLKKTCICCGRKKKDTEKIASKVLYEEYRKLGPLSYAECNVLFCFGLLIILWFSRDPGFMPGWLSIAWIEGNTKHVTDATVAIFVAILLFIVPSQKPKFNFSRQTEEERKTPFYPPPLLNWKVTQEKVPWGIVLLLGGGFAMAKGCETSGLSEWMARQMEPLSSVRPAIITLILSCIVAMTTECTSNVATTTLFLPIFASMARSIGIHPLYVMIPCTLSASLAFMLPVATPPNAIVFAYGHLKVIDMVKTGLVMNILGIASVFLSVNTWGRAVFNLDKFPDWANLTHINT

ceNaCT = biological target: T3, ceNaCT (Caenorhabditis elegans, UniProt P32739, I91S/L182M); experiment: Uptake via ceNaCT expressed in HRPE cells; settings: for Competition with [^14C]citrate for ceNaCT-mediated uptake: competitor 2.5 mM, [14C]citrate 15 μM
T3 sequence (P32739 1-551 I91S/L182M): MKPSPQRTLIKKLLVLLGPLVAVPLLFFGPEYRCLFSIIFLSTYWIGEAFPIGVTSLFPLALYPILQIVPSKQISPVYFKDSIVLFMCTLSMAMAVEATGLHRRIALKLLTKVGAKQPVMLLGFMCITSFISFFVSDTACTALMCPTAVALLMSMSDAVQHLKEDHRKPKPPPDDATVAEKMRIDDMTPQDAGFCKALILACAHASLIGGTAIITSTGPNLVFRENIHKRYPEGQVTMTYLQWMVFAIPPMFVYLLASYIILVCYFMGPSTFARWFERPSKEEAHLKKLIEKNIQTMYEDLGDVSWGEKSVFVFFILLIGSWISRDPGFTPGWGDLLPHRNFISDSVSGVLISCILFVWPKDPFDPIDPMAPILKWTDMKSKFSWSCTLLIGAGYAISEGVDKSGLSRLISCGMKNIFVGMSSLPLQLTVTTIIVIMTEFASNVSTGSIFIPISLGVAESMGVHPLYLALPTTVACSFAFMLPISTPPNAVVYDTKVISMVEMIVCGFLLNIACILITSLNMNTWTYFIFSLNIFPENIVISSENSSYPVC

rat NaCT [2] = biological target: T2, rat NaCT; experiment: Rat NaCT in X. laevis oocytes, voltage clamp and charge-to-substrate ratio; type: cell-based; settings: substrate 0.5 mM
zebrafish NaCT = zebrafish NaCT (Danio rerio, UniProt A0A2R8QQN0, K78Q); experiment: Citrate uptake via zebrafish NaCT expressed in HRPE cells; type: cell-based; settings: Li+ 2 mM, valproate 0.6 μM, carbamazepine 50 μM
[3] = Li+ 2 mM, valproate 0.6 μM, carbamazepine 50 μM

## CC(=O)C(=O)O [Pyruvate, pyruvate]
Mouse NaCT; [3H]-succinate 0.1 μM, substrate analog 2 mM
  [^3H]-Succinate transport (NaCT-specific): 0.151 ± 0.013 pmol/10^6 cells/min
Mouse NaCT; [14C]-citrate 10 μM, substrate analog 2 mM
  [^14C]-Citrate transport (NaCT-specific): 32.3 ± 1.5 pmol/10^6 cells/min
drIndy
  Uptake in drIndy cDNA-transfected cells vs vector alone: 1.5 fold
Human NaCT; [14C]-citrate 20 μM, unlabeled compound 2.5 mM
  [^14C]-Citrate Uptake (cDNA-specific): 51.5 ± 3.8 pmol/10^6 cells/min
Human NaCT; succinate 80 nM, pyruvate 100 μM
  Increase of uptake in cDNA-transfected cells compared to control cells: 20-30%
Rat NaCT [1]; [14C]citrate 14 μM, unlabeled compound 2.5 mM
  [^14C]Citrate uptake (cDNA-specific): 89.4 ± 7.2 Pmol/10^6 cells/min
Rat NaCT [1]; succinate 80 nM, pyruvate 135 μM, citrate 35 μM, Na+ gradient
  Uptake in rat NaCT cDNA-transfected cells vs vector alone: approximately 3 fold
ceNaCT
  Competition with [^14C]citrate for ceNaCT-mediated uptake: only a minimal inhibition
Rat NaCT [2]
  Substrate-induced currents: no or little currents

## CCCC(CCC)C(=O)O [Valproate, valproate]
Mouse NaCT; [3]
  Citrate uptake, mNaCT: 42.5 ± 4.4 pmol/10^6 cells/min
Human NaCT; [3]
  Citrate uptake, hNaCT: 57.3 ± 2.6 pmol/10^6 cells/min
Zebrafish NaCT
  Citrate uptake, zfNaCT: 453.0 ± 26.6 pmol/10^6 cells/min
Rat NaCT [1]; [3]
  Citrate uptake, rNaCT: 142.4 ± 6.3 pmol/10^6 cells/min
ceNaCT; [3]
  Citrate uptake, ceNaCT: 46.0 ± 3.6 pmol/10^6 cells/min

## O=C(O)CC(C(=O)O)C(O)C(=O)O (stereo not shown) [Isocitrate]
ceNaCT
  Competition with [^14C]citrate for ceNaCT-mediated uptake: did not compete with [^14C]citrate as effectively as unlabelled citrate

## O=C(O)CC(O)C(=O)O (stereo not shown) [Malate, malate]
Rat NaCT [2]
  Substrate-induced currents as % of citrate-induced currents: 20-60%
